Among the data in article PMC8192925 are binding values, retold here.

Chains of the proteins cited; added tags and fusions are not shown. Residues count along the entry.
UniProt P13500, residues 24-99: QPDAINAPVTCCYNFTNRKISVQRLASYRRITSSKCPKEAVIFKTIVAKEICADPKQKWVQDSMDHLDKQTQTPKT
UniProt P13611, residues 21-3396: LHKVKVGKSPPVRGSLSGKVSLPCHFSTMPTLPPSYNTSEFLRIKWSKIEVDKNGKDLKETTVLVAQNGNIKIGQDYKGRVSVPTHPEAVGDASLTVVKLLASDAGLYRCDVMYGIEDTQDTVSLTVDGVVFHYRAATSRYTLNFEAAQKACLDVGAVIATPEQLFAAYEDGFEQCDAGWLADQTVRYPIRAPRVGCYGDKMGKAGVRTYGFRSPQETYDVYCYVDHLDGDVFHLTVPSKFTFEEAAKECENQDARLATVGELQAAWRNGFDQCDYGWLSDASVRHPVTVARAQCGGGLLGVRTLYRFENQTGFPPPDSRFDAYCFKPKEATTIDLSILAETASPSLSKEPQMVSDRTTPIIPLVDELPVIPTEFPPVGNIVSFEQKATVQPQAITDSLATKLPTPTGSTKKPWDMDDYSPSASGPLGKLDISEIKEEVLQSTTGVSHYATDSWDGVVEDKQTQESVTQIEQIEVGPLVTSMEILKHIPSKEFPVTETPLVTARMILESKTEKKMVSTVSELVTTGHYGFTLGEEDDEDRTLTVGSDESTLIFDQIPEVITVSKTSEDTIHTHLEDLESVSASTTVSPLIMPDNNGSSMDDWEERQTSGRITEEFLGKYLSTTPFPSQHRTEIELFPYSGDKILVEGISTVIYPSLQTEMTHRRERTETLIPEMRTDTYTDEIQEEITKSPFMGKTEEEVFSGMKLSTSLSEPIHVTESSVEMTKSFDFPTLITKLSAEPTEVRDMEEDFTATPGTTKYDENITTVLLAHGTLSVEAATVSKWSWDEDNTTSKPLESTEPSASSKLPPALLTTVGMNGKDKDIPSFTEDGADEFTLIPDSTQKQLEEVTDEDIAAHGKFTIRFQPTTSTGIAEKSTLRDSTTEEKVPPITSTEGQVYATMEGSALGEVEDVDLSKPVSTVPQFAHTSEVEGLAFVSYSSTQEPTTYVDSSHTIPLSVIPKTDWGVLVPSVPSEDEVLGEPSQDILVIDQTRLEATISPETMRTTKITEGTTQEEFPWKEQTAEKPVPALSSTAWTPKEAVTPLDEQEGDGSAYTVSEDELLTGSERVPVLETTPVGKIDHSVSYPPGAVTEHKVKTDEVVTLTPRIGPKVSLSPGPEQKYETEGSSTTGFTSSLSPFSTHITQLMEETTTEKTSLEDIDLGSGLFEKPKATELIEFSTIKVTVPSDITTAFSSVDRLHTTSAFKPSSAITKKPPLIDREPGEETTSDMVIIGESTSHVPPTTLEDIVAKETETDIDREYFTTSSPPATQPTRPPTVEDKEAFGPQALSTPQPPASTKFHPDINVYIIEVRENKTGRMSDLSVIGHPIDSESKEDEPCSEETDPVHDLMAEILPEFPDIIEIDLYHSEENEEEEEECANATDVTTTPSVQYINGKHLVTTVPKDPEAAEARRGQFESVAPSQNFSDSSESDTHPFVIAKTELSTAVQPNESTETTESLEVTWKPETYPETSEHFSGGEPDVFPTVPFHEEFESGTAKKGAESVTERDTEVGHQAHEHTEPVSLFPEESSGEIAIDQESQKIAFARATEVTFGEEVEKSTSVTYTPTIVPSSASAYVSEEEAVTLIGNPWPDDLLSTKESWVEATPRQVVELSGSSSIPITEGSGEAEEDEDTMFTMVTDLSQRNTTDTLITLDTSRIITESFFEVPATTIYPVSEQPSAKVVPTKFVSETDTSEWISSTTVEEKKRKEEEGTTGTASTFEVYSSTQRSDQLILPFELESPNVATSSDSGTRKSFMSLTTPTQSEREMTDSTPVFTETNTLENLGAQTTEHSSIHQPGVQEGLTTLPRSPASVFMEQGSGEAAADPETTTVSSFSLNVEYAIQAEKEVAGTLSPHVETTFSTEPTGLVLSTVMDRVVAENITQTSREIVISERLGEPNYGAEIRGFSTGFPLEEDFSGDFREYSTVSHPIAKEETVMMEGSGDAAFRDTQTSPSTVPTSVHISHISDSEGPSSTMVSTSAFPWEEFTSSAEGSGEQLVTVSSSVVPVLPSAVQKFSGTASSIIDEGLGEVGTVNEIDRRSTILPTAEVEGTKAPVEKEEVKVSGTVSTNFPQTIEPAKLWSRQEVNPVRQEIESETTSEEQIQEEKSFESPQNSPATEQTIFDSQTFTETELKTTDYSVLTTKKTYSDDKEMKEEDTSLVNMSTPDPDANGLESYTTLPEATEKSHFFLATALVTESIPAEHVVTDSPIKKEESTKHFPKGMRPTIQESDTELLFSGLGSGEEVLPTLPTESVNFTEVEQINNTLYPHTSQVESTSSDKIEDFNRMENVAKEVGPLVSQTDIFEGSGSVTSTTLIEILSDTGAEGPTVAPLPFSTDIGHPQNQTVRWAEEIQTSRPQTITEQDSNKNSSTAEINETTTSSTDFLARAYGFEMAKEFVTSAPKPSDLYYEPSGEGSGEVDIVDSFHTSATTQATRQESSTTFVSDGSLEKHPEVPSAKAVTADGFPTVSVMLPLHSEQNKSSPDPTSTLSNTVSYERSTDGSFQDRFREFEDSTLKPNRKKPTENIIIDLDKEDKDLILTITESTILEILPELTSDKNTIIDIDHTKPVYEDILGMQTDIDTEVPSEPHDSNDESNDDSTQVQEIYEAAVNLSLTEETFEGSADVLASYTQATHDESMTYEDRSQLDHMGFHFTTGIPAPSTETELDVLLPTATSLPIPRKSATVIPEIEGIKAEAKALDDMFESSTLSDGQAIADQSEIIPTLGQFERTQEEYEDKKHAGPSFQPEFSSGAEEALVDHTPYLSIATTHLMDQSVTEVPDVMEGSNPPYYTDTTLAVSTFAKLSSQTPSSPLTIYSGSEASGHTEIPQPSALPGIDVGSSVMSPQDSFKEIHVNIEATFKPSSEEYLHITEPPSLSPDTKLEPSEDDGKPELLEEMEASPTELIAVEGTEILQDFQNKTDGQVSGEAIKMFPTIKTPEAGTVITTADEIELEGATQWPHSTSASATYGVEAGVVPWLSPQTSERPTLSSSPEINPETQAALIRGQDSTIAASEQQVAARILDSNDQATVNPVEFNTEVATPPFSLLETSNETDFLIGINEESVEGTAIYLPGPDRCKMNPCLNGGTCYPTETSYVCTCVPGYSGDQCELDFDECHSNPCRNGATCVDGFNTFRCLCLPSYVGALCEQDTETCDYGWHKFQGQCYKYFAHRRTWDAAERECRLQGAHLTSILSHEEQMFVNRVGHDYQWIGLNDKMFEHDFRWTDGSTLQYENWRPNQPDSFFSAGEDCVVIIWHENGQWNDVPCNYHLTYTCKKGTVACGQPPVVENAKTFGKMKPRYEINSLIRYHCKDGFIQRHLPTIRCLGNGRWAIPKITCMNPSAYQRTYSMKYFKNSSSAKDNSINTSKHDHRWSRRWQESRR
UniProt P16070, residues 21-742: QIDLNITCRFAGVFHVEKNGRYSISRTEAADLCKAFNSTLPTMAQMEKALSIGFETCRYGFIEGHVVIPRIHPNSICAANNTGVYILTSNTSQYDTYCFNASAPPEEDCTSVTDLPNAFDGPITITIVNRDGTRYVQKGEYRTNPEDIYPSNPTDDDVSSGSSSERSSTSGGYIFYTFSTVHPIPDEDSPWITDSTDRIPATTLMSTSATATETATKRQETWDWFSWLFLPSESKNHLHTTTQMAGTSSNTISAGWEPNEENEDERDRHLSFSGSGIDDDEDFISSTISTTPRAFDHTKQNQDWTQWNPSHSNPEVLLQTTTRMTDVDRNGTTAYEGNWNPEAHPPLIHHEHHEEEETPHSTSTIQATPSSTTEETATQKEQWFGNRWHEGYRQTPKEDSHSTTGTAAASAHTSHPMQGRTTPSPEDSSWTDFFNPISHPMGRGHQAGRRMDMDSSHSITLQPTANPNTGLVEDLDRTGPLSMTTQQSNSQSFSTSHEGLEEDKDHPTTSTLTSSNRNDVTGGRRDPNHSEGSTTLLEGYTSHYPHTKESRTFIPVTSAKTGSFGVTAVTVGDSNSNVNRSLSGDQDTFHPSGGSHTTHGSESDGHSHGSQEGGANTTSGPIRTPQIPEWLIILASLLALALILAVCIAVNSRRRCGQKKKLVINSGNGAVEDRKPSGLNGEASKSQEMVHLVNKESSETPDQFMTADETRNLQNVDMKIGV

No constants are given. Whether binding was seen depends on the method and setting. In cells and extracts the contact can be indirect. Some binding calls cover weakened binding; strength is not graded here.

The assay concerns the target recombinant CCL2 (human) (UniProt P13500). In words: co-IP; MDA-MB-231 exosomes (500 ug/ml) sonicated in binding buffer (50 mM Hepes, 150 mM NaCl, 1% NP-40, 0.5% Triton X-100, pH 7.5), incubated with recombinant CCL2 (10 ug/ml) 1 h 30 min at 37 C; precipitated with anti-CCL2 antibody on Protein A/G agarose overnight at 4 C; detected by western blotting; only the target purified.

As for versican (from UniProt P13611 21-3396), the binding result is recorded as “binds”.

As to CD44 (from UniProt P16070 21-742), the binding result was “binds”.

B1: syndecan-1 (protein, UniProt P18827 23-310)
chain: QIVATNLPPEDQDGSGDDSDNFSGSGAGALQDITLSQQTPSTWKDTQLLTAIPTSPEPTGLEATAASTSTLPAGEGPKEGEAVVLPEVEPGLTAREQEATPRPRETTQLPTTHLASTTTATTAQEPATSHPHRDMQPGHHETSTPAGPSQADLHTPHTEDGGPSATERAAEDGASSQLPAAEGSGEQDFTFETSGENTAVVAVEPDRRNQSPVDQGATGASQGLLDRKEVLGGVIAGGLVGLIFAVCLVGFMLYRMKKKDEGSYSLEEPKQANGGAYQKPTKQEEFYA
modifications: heparan sulfate (HS) and chondroitin sulfate (CS) glycosaminoglycan side chains
Regarding B1, the binding result is “binds”.
